These are yes or no findings as the source states them, for the method shown. Binding seen in cells or lysates may run through a third protein. Some results given as binding are weak or reduced against the parent protein; the word gives no strength. For part of these data: Sequences can lack the tags named with a protein.
T1: IRTKS, endogenous human (human (endogenous in HepG2, SK-Hep-1, Huh7, HEK293T)) (UniProt Q9UHR4)
T1 sequence: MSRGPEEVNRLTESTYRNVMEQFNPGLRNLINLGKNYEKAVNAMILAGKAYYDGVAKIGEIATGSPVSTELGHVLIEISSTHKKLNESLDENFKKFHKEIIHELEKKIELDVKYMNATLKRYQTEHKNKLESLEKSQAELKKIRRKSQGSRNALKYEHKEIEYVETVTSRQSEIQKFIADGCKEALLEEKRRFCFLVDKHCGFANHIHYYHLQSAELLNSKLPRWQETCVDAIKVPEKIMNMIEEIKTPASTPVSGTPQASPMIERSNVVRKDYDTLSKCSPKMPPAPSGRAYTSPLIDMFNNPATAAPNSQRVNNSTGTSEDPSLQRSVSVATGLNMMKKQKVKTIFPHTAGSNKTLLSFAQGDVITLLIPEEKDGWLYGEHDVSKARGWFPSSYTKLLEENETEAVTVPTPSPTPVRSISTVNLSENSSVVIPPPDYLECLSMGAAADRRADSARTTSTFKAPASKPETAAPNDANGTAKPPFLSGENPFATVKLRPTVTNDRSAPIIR

T2: GST-tagged full-length IRTKS (human) (UniProt Q9UHR4)
T2 sequence: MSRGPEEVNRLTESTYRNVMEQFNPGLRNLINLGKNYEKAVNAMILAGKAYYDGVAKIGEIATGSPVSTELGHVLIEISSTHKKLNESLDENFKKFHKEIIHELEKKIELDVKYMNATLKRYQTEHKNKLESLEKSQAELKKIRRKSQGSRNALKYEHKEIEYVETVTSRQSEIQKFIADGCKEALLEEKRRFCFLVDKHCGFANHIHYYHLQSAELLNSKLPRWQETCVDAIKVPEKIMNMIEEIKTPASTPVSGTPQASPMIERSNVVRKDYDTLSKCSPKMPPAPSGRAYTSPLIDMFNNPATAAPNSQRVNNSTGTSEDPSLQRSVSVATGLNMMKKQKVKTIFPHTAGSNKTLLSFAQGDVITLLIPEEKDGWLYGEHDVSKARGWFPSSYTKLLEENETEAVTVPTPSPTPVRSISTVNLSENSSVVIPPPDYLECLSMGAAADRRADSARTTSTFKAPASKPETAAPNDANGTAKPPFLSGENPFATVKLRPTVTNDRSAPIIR

T3: SHIP2, endogenous mouse (mouse (endogenous in MEFs, liver and kidney)) (UniProt Q6P549)
T3 sequence: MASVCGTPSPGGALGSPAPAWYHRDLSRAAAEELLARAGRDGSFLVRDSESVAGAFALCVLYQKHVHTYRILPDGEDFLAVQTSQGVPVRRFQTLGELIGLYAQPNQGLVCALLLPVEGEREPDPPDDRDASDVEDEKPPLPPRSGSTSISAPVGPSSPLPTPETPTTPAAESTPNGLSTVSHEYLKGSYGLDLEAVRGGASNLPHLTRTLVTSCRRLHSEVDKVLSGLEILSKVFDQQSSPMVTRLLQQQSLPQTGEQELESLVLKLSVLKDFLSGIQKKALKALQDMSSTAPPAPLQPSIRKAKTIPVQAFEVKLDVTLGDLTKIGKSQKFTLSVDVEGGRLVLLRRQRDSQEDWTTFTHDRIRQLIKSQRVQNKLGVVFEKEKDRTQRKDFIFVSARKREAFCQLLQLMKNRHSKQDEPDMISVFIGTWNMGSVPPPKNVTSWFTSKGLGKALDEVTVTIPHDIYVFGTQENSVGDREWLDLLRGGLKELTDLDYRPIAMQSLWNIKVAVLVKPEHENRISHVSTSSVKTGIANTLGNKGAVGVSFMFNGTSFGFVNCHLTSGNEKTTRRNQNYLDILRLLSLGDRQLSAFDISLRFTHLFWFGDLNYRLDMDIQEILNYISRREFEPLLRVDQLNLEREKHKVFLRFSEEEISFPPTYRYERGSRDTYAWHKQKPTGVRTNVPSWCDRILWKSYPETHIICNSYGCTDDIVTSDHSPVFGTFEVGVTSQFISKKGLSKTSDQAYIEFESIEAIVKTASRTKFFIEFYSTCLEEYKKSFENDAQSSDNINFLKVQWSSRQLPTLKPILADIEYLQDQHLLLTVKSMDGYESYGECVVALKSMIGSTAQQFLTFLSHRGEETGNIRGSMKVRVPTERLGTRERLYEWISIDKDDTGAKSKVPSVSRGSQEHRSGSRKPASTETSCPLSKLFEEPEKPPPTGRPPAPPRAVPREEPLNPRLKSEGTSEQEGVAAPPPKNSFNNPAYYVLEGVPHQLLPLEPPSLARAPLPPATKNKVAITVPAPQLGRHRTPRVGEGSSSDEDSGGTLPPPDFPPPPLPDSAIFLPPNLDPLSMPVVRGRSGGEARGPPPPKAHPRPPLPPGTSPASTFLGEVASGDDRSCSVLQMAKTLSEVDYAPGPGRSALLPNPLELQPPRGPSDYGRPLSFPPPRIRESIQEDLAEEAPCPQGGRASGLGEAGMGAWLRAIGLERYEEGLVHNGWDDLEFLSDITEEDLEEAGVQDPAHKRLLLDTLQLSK


Columns and labels:
[1] = target: T1, IRTKS, endogenous human (human (endogenous in HepG2, SK-Hep-1, Huh7, HEK293T)); experiment: co-IP; lysates (1 mg total protein) of HepG2, SK-Hep-1 and Huh7 cells, also serum-starved and stimulated with insulin for the indicated times; anti-IRTKS or anti-SHIP2 antibody (1 ug) at 4 °C overnight, protein-G beads 4 h; IgG as negative control; immunoblot
[2] = target: T2, GST-tagged full-length IRTKS (human); experiment: pull-down; GST-tagged IRTKS fusion proteins bound to glutathione-sepharose beads, incubated with HEK293T cell lysate overnight at 4 °C; washed four times with lysis buffer; Western blot for endogenous SHIP2; only the target purified
[3] = target: T3, SHIP2, endogenous mouse (mouse (endogenous in MEFs, liver and kidney)); experiment: co-IP; lysates (1 mg total protein) of MEFs, liver and kidney of wild-type and IRTKS-knockout mice; anti-IRTKS or anti-SHIP2 antibody (1 ug) at 4 °C overnight, protein-G beads 4 h; IgG as negative control; immunoblot

Row | binding [1] | binding [2] | binding [3] | Binder
1 | binds | binds |  | SHIP2, endogenous human (enzyme, UniProt O15357 1-1258) MASACGAPGPGGALGSQAPSWYHRDLSRAAAEELLARAGRDGSFLVRDSESVAGAFALCVLYQKHVHTYRILPDGEDFLAVQTSQGVPVRRFQTLGELIGLYAQPNQGLVCALLLPVEGEREPDPPDDRDASDGEDEKPPLPPRSGSTSISAPTGPSSPLPAPETPTAPAAESAPNGLSTVSHDYLKGSYGLDLEAVRGGASHLPHLTRTLATSCRRLHSEVDKVLSGLEILSKVFDQQSSPMVTRLLQQQNLPQTGEQELESLVLKLSVLKDFLSGIQKKALKALQDMSSTAPPAPQPSTRKAKTIPVQAFEVKLDVTLGDLTKIGKSQKFTLSVDVEGGRLVLLRRQRDSQEDWTTFTHDRIRQLIKSQRVQNKLGVVFEKEKDRTQRKDFIFVSARKREAFCQLLQLMKNKHSKQDEPDMISVFIGTWNMGSVPPPKNVTSWFTSKGLGKTLDEVTVTIPHDIYVFGTQENSVGDREWLDLLRGGLKELTDLDYRPIAMQSLWNIKVAVLVKPEHENRISHVSTSSVKTGIANTLGNKGAVGVSFMFNGTSFGFVNCHLTSGNEKTARRNQNYLDILRLLSLGDRQLNAFDISLRFTHLFWFGDLNYRLDMDIQEILNYISRKEFEPLLRVDQLNLEREKHKVFLRFSEEEISFPPTYRYERGSRDTYAWHKQKPTGVRTNVPSWCDRILWKSYPETHIICNSYGCTDDIVTSDHSPVFGTFEVGVTSQFISKKGLSKTSDQAYIEFESIEAIVKTASRTKFFIEFYSTCLEEYKKSFENDAQSSDNINFLKVQWSSRQLPTLKPILADIEYLQDQHLLLTVKSMDGYESYGECVVALKSMIGSTAQQFLTFLSHRGEETGNIRGSMKVRVPTERLGTRERLYEWISIDKDEAGAKSKAPSVSRGSQEPRSGSRKPAFTEASCPLSRLFEEPEKPPPTGRPPAPPRAAPREEPLTPRLKPEGAPEPEGVAAPPPKNSFNNPAYYVLEGVPHQLLPPEPPSPARAPVPSATKNKVAITVPAPQLGHHRHPRVGEGSSSDEESGGTLPPPDFPPPPLPDSAIFLPPSLDPLPGPVVRGRGGAEARGPPPPKAHPRPPLPPGPSPASTFLGEVASGDDRSCSVLQMAKTLSEVDYAPAGPARSALLPGPLELQPPRGLPSDYGRPLSFPPPRIRESIQEDLAEEAPCLQGGRASGLGEAGMSAWLRAIGLERYEEGLVHNGWDDLEFLSDITEEDLEEAGVQDPAHKRLLLDTLQLSK
2 |  |  | binds | IRTKS, endogenous mouse (protein, UniProt Q9DBJ3 1-514) MSRGPEEVNRLTENTYRNVMEQFNPGLRNLINLGKNYEKAVNAMILAGKAYYDGVAKIGEIATGSPVSTELGHVLIEISSTHKKLNETLDENFKKFHKDIIHELEKKTELDVKYMNATLKRYQAEHRNKLDSLEKSQAELKKIRRKSQGGRNALKYEHKEIEYVETVTSRQSEIQKFIADGCKEALLEEKRRFCFLVDKHCSFASHIHYYHMQSAELLNSKLPRWQETCCDATKVPEKIMNMIEEIKTPISTPVSGTPQPSPMIERSKMIGKDYDTLSKYSPKMPPAPSVKAYTSPLIDMFNNPATAAQSSEKTNNSTANTGEDPSLQRSVSVATGLNMMKKQKVKTIFPHTAGNNKTLLSFAQGDVLTLLIPEEKDGWLYGEHDTTKARGWFPSSYTKLLEENEAMSVPTPSPAPVRSISTVDLTEKSSVVIPPPDYLECLSMGATSDKKAGAPKVPSASTFRAPVSRPDATSTSPSDANGTAKPPFLSGENPFATVKLRPTVTNDRSAPIIR

From article PMC6600216
